These are yes or no findings as the source states them, for the method shown. In cells and extracts the contact can be indirect. A result given as binding can be weak or reduced; the word gives no strength. Sequences can lack the tags named with a protein.
B1: RNA helicase CshA with a C-terminal HA tag, chromosomally encoded in S. mutans (strain CshAHA) (enzyme, UniProt Q8DV90 1-517)
chain: MKFTELHLAEDILSAVAKVGFVEPSPIQELTIPLALEGKDVIGQAQTGTGKTAAFGLPTLNKIDVTNNVVQALVIAPTRELAVQSQEELFRFGREKKVKVRSVYGGSSIEKQIKALKSGAHIVVGTPGRLLDLIKRKALKLNHVETLILDEADEMLNMGFLEDIEAIISRVPETRQTLLFSATMPDAIKRIGVKFMKEPEHVKIAAKELTTDLVDQYYIRVKENEKFDTMTRLMDVEQPELSIVFGRTKRRVDELTRGLKLRGYRAEGIHGDLDQGKRLRVLRDFKNDNLDILVATDVAARGLDISGVTHVYNYDIPQDPESYVHRIGRTGRAGKHGQSITFVAPNEMGYLQIIEKLTKKRMKGMKPATAQEAFQASKKVALKKIERDFADEKIRSNFDKFTKDAEKLAAEFSPEELAQYILTLTVQDPEMLPKVEIAREKPLPFKFAGKGKGGNRRREDRRGGRDSRRNHRDGGRREFKRTSNKNRKDFENKSNKRPHRTSSEKKSGFTIRNKGDR
B2: FtsZ with a C-terminal HA tag, chromosomally encoded in S. mutans (strain FtsZHA) (protein, UniProt Q8DVD9 1-434)
chain: MAFSFDAASVQGAVIKVIGVGGGGGNAINRMIDEGVAGVEFIAANTDIQALSSSKAETVIQLGPKLTRGLGAGGQPEIGRKAAEESEEALTEALTGADMVFITAGMGGGSGTGAAPVIARIAKGLGSLTVAVVTRPFGFEGSKRGNYAIEGINELRDEVDTLLIISNNNLLEIVDKKTPLLEALSEADNVLRQGVQGITDLITSPGLINLDFADVKTVMASKGNALMGIGIGTGEERVVEAARKAIYSPLLETTIDGAEDVIVNVTGGLDMTLTEAEEASEIVNQAAGHGVNIWLGTSIDDSMKDEIRVTVVATGVRPDKADQVSGIRRQASSYTQPRAQQQAPSSNSAQPNFERRQNFDFDLNESPEMPAAEPQQTQSSSEPQQSAFGDWNLRRENIARPTEGEIDSQLKMSSFSADSDDDDELETPPFFKNR
B3: Cell division protein FtsA with an N-terminal HA tag, chromosomally encoded in S. mutans (strain FtsAHA) (protein, UniProt Q8DVE0 1-453)
chain: MARDGFFTGLDIGTSSIKVLVAEFINGSMNVIGVSNVKSSGVKDGIIIDIDTAAEAIKSAIKEAEEKAGMSISKVNVGLPANLLQIEPTQGMIPVPSESKEIKDEDVDSVVRSALTKSITPEREVISLIPEEFIVDGFQGIRDPRGMMGIRLEMRGLIYTGPSTILHNLRKTVERAGIEVENIIISPLALTKSVLNEGEREFGATVIDMGGGQTTVASMRAQELQFTNTYAEGGDYVTKDISKVLKTSHQVAEALKFNFGEANVAEASSTETVQVEVVGERNPVEITERYLSEIISARVRHLLDRIKQDLERGRLLDLPGGIVIVGGAAIMPGVVEIAQEIFGFNVKLHVPNQVGIRNPMFANIISIVEYVGTLTEVDILAQGAVSGDEKLRRKPIDIKPSGVAPKTRSFAQPQESTTLESQLEQLPPQQKEANEPKQKVGDRLRGIFGSMFD
B4: Translation initiation factor IF-2 with a C-terminal HA tag, chromosomally encoded in S. mutans (strain InfBHA) (protein, UniProt Q8DVP9 1-916)
chain: MSKKRLYEIAKEIGKESKEIVEKAKSLGLEVKSHASSVEESDAKRIVESFTVSVEPKAVTPTSKVEKEAKAQEGSVAAEPKAAATKPAGRPRPQNRNFKAEREARAKAEAERRQNNGERRNQNKGQNNRQKDNRNHGSQDRRNDNRNNRNRQNDNRRDNRNHFQNRQEASKSQPTGPRFDFKARAAALKAEQNAEYSRQSETRFHEAQEAKRQAAQAKEKAKKLNQKEQPTVEAAATAAPQAQPQTVEQVTHPAAVDTRRKKQARPDKSRDFSHENEDGPKQNKHKKNRNKQNQVRNQKNSNWNKKNKKSKNNRNHNANLKPVTERKFHELPKEFEYTEGMTVAEIAKRIKREPAEIVKKLFMMGVMATQNQSLDADTIELLMVDYGIEAHQKVEVDTADIERFFVEDDYLNPKNMVERAPVVTIMGHVDHGKTTLLDTLRNSRIATGEAGGITQHIGAYQIEEGGKKITFLDTPGHAAFTSMRARGASVTDITILIVAADDGVMPQTIEAINHSKAADVPIIVAINKIDKPGANPERVIGELAEYGVISTAWGGDSEFVEISAKFGQNIEELLETVLLVAEIQELKADPTVRAIGTVIEARLDKGKGAVATLLVQQGTLHVQDPIVVGNTFGRVRAMTNDLGRRVKVAAPSTPVSITGLNEAPMAGDHFAVYEDEKAARAAGEERAKRALLKQRQLTHRVSLDNLFDTLKAGEVKSVNVIIKADVQGSVEALAASLLKIDVEGVKVNVVHSAVGAINESDITLAEASNAVIIGFNVRPTPQARQQAEADEVEIRLHSIIYKVIEEVEDAMKGMLDPEFEEKIIGEALIRETFKVSKVGTIGGFMVTNGKITRDSSARVIRDGVVVFDGKLASLKHYKDDVKEVGNGQEGGLMIENYNDIKIDDTIEAYIMEEIKR
B5: Putative homoserine dehydrogenase SMU_965 with a C-terminal HA tag, chromosomally encoded in S. mutans (strain 965HA) (enzyme, UniProt Q8DUG5 1-428)
chain: MSIKIGLLGFGTVASGMPFLLKENKDKITAASGTKLEIAKVLVKDDDEKKRLLAAGNDFNFVTNVDDILSDDDIAIVVELMGRIEPAKTFITKALEAGKHVVSANKDLIATHGKELIRLAQDKGVAFYYEAAVAGGIPILRTLANSLTSDKVTRILGVLNGTSNFMMTKMVDEGWTYEAALKKAQELGYAESDPTNDVEGIDAAYKAVILSQFGFGMTIDFDQVVHQGISSITPDDVAMAQQLGYVIKLVGSVEETPSGIFAEVSPTFLPKSHPLASVNDVMNAVFVESIGIGESMYYGPGAGQKPTATSVVADVIRIARRIKDGNVGKCFNEFIRETKIAHPDDVKSHYYFAINTADEKGKMLRLAEIFNSEDISFEQVLQQKANGEQARVVIITHSLSKSQLVNVTEKLQAVADFKLLNTFKVLGE

Key:
[1] = biological target: T1, FtsZ with a C-terminal HA tag, chromosomally encoded in S. mutans (strain FtsZHA) (Streptococcus mutans UA159) (UniProt Q8DVD9); experiment: co-IP; reciprocal: S. mutans crosslinked in vivo with formaldehyde; 1 mg cytoplasmic or membrane protein extract; anti-HA agarose (HA tagged proteins as baits), blot with anti-FLAG for RNase J2
T1 sequence: B2 chain

[2] = biological target: T2, RNA helicase CshA with a C-terminal HA tag, chromosomally encoded in S. mutans (strain CshAHA) (Streptococcus mutans UA159) (UniProt Q8DV90); experiment: as above
T2 sequence: B1 chain

[3] = biological target: T3, FtsZ with an HA tag, expressed in E. coli (Streptococcus mutans UA159) (UniProt Q8DVD9); experiment: co-IP; proteins co-expressed in E. coli BL21 from pET29b; 1 mg lysate protein immunoprecipitated with anti-HA antibodies, blot with anti-FLAG
T3 sequence: B2 chain

[4] = biological target: RNase J2 with a C-terminal 3x FLAG tag, chromosomally encoded in S. mutans (strain J2F) (Streptococcus mutans UA159); experiment: co-IP; S. mutans crosslinked in vivo with formaldehyde; 1 mg cytoplasmic or membrane protein extract; anti-FLAG M2 affinity gel (RNase J2-3x FLAG as bait), blot with anti-HA

| Molecule | binding [4] | also measured |
| --- | --- | --- |
| RNase J2 with a C-terminal 3x FLAG tag, chromosomally encoded in S. mutans (strain J2F) (Streptococcus mutans UA159) (enzyme) |  | binding [1]: binds weakly; binding [2]: binds |
| Full-length RNase J2 with a C-terminal 3x FLAG tag, expressed in E. coli (Streptococcus mutans UA159) (enzyme) |  | binding [3]: binds |
| B1 | binds |  |
| B2 | binds weakly |  |
| B3 | no binding |  |
| B4 | no binding |  |
| B5 | no binding |  |
